Experimental data as given in article PMC8396234.
No constants are given. Whether binding was seen depends on the method and setting. Binding seen in cells or lysates may run through a third protein. Some entries that bind do so weakly or less than the wild type.

Amino acid sequences for entries named in this document (tags omitted).
UniProt Q99P50: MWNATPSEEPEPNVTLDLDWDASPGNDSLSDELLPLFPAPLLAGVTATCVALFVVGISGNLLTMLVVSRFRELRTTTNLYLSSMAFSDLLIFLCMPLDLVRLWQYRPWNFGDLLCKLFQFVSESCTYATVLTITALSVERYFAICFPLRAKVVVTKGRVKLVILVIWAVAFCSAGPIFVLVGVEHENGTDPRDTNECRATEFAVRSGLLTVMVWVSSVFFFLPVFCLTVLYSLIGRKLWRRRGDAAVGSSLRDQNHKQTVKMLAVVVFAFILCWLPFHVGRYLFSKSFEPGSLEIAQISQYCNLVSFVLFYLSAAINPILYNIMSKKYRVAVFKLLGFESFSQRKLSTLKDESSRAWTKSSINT
UniProt Q92847: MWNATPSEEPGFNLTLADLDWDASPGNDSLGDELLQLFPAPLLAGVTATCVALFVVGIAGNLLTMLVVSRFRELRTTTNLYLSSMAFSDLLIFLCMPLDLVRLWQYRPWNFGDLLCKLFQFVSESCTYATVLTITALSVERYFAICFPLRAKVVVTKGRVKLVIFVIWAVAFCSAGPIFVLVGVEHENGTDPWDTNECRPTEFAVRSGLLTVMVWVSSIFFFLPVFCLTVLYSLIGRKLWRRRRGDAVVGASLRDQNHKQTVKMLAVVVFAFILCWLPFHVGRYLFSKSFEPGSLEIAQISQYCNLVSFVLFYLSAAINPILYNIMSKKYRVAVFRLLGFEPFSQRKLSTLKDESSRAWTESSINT
UniProt P47936: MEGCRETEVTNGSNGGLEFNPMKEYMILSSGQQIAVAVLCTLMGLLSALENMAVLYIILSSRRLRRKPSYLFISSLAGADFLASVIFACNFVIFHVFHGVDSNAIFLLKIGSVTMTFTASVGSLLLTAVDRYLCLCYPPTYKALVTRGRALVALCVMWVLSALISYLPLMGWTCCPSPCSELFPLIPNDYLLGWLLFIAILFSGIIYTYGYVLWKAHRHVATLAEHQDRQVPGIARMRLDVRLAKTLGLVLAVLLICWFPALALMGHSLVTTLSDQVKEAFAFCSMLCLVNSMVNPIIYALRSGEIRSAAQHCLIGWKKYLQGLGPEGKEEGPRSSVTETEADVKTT

Tests used:
[1] = biological target: GHSR1a (endogenous, mouse primary striatal neurons) (mouse (endogenous in primary striatal neurons of C57BL/6J)) (UniProt Q99P50); assay: proximity ligation; Duolink in situ PLA on fixed, permeabilised primary striatal neurons from fetuses of C57BL/6J mothers on a standard or high-fat diet; mouse anti-CB2R and rabbit anti-GHSR1a primary antibodies; red dots per cell counted
[2] = biological target: GHSR1a fused to Rluc8 N/C hemiproteins (GHSR1a-nRLuc and GHSR1a-cRLuc) (human) (UniProt Q92847); assay: split reporter; bimolecular complementation in HEK-293T cells: RLuc8 N/C hemiproteins on GHSR1a (bioluminescence) and YFP (Venus) N/C hemiproteins on CB2R (fluorescence)

binding [1]	binding [2]	Substance
binds		CB2R (endogenous, mouse primary striatal neurons) (from UniProt P47936 1-347) (receptor)
	binds	GHSR1a fused to Rluc8 N/C hemiproteins (GHSR1a-nRLuc and GHSR1a-cRLuc) (from UniProt Q92847 1-366) (receptor)
